## Library screening results

Results are given as percent effect.
The record does not define 0% and 100%; most values in the screen are far below 50% and negative numbers occur (in some assays of this library far below -100).
Compounds were drawn at random from those tested, without regard to their results.

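Whole-cell assay for inhibitors of Mycobacterium tuberculosis growth, labelled Cornell in the record; the read-out is not stated. The concentration is filed as 10 mM, unlikely as a test dose, so the dose is not known. Higher means stronger inhibition (inferred from two other growth screens of the library). Size under these conditions: about 53,000 compounds, about 900 of them at 50% or above in at least one test.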

For [H][C@@]12CN(c3cc(OC)ncn3)C[C@H](C(=O)NC3CC3)[C@]1([H])CCO2 the result was -0.8428%. Cc1nc(CN(C)C(=O)c2cccc(CC3CCNCC3)c2)no1 gave -17.82%. For Nc1nc(CCC(=O)N2CCOC(CC3CCCCC3)C2)cs1 (stereo not shown) the result was 5.165%. CCN1CCC2(CCC(=O)N2Cc2cccc(C)n2)CC1.O=C(O)C(F)(F)F.O=C(O)C(F)(F)F gave 10.87%. CS(=O)(=O)c1ccc(NC(=O)CSc2ccc3c(c2)CCC3)cc1 read -7.271%.

Cc1oc(C(=O)O)cc1S(=O)(=O)Nc1ccc(Cl)c(F)c1 gave 10.53%. For CN1CCCC2(CC1)CCN(C(=O)CCc1ccccc1O)CC2 the result was 24.96%. Cc1cc(C(=O)NCc2ccc(F)cc2)nc(C2CCCN2C)n1 (stereo not shown) gave -3.623%. Result for CN(C)C(=O)Cc1nc(CN2CCCCC2Cn2cccn2)cs1 (stereo not shown) was -21.16%. With CCNC(c1ccc(C)cc1)c1cccnc1 (stereo not shown) the screen gave -8.954%.

With Cc1nc(C)n(CC(C)C(=O)N2CCC(N3CCC(O)CC3)CC2)n1 (stereo not shown) the screen gave 1.705%. For CC(C)[C@@H]1CN(C(=O)NCc2ccco2)C[C@H]1N(C)C the result was -6.384%. With COc1ccc(C(=O)Nc2c(C)nn(C(C)C)c2C)cc1 the screen gave -14.73%. For CC(C)C[C@@H]1N[C@H](C(=O)NC(C)C)Cc2c[nH]c3cccc1c23 the result was 22.96%. For CN[C@@H](CO)C(=O)NCc1cc2n(n1)CCCN(C1CCCCC1)C2 the result was 35.28%.

O=C(NCCNc1cccnc1)C(c1cccnc1)N1CCCC1 (stereo not shown) gave 4.138%. COc1cc(S(=O)(=O)N2CCc3ccc(Cl)cc32)cc(C(=O)O)c1OC read 13.88%. With Cc1nnc(CN(C)CC2(O)CCCN(CCC3CCCCC3)C2=O)o1 (stereo not shown) the screen gave 16.21%. NC(=O)N1CCCN(CC(=O)NCCc2c(F)cccc2F)CC1 gave 21.84%. Cc1noc(C)c1NC(=O)CCn1cc(Br)ccc1=O read 22.38%.

O=C(NCCN1CCOCC1)c1ccn(-c2ccc3ccccn23)n1.O=C(O)C(F)(F)F read 21.01%. Result for COc1ccc(Cl)cc1S(=O)(=O)N(C)CC(=O)Nc1ccccc1 was 28.1%. NC(=O)c1cn[nH]c1C1CCCN1C(=O)c1ccccc1 (stereo not shown) read -68.33%. For O=C(NCC1CC1)C1CCC2(CCN(C(=O)c3ccccn3)CC2)O1.O=C(O)C(F)(F)F (stereo not shown) the result was -3.541%. Result for O=C(CCSc1ccccc1)NCCn1nc2ccccn2c1=O was 5.511%.

For Cc1noc(C)c1-c1cncc(C2CCCN2Cc2cn(C)cn2)n1 (stereo not shown) the result was -5.512%. CNC(=O)NC(=O)CN1CCC(c2c[nH]c3ccc(OC)cc23)CC1 read 34.88%. With COCCCN1CCCC12CCN(c1ncccn1)CC2.O=C(O)C(F)(F)F the screen gave -9.138%. CCOCC1CN(CCOc2ccc(Cl)cc2)Cc2c1cnn2C.O=C(O)C(F)(F)F.O=C(O)C(F)(F)F (stereo not shown) gave -13.48%. CC(C)c1nn(C)c(Cl)c1CNC1CCOc2ccccc21.Cl (stereo not shown) read 26.14%.

Measurements from “University of Dundee, Small-Polar-MMV Screening Library” (2021), ChEMBL document CHEMBL3988442.